Source: publication PMC10163288
The list shows a part of the results.

B1: il10ra_site1_normal_mot_0750aae41c39e4229e2ea8fa354cc919_0001_1_000000144_0001_37_51_H_._ems_3hC_921_0001_af2_0001_0000100007_0000001_0 (protein)
chain: SSPEEAQKLLEQAEELAEEQNDEKALEAVRFWKELDEAAARRNDERVVRSVARAARALLELLQES
B2: il10ra_site1_normal_mot_HHH_b2_00612_000000251_0001_1_14_H_._HHH_b2_05838_af2_0001_0000100003_0000001_0_af2pred_0001 (protein)
chain: SSSSSDEAFKFAREVIEELLELAKKDERKVEELSEEAEKRLRELGNELAARSIKFFAERLSSSSS
B3: il10ra_site1_sap_25_mot_HHH_b1_05254_000000006_0001_1_19_H_._HHH_b2_07878_0001_0000100014_0000002_0_0001 (protein)
chain: SSSSDEEKERVEELLEEAEELAKEGDPREAARVLLEAVRLALHLGDPELLQLVWELVHRLASSSS
B4: il10ra_site1_sap_22_mot_HHH_b1_00999_000000080_0001_41_55_H_._HHH_b2_04871_af2_0001_0000400010_0000001_0_0001 (protein)
chain: SSSDEEEERARELLEEAEELFEKGNPHEAARVFQEAMRVAAEGGDEELMREIQRLSMELQRSSSS
B5: il10ra_site1_sap_22_mot_HHH_b2_06480_af2_000000075_0001_1_18_H_._HHH_b2_07088_0001_0000300019_0000001_0_0001 (protein)
chain: SSSSSDKEVERLLEEAEELLEEGNPEEAIHVLLEAVRLALEEGDEELLQEVWELVLRLAHSSSSS
B6: il10ra_site1_normal_mot_HHH_b2_06142_af2_000000101_0001_1_18_H_._HHH_b2_05708_0001_0000300027_0000002_0_af2pred_0001 (protein)
chain: SSSSDLEELLKILAQLSRRVSEELAREILRAIVEALHLRLNGNPEEARKVLEEAIEEAEKSSSSS
B7: il10ra_site1_sap_24_mot_HHH_b2_00441_000000175_0001_1_18_H_._HHH_b2_02636_0001_0000300021_0000001_0_0001 (protein)
chain: SSSSDELEELVEAAMRLAEQAAENGDPRAARLLLRALLQLLERENSPLFEEVEELLERIEESSSS
B8: il10ra_site1_normal_mot_e1dd4851c59bc1cdde016f988f6856bd_0001_1_000000200_0001_16_31_H_._HHH_eva_0684_0001_0000200010_0000001_0_af2pred_0001 (protein)
chain: SSSSSSTEEEIERIVRELAEEFGLSEEAIRAVEIAAKRNGASERDIELMIRFLALTKKSSSSSSS
B9: il10ra_site1_sap_22_mot_HHH_b1_03314_af2_000000278_0001_42_55_H_._HHH_b2_06353_af2_0001_0000300009_0000002_0_0001 (protein)
chain: SSSSSEEEREYAERALRFARALYEAGDPEAARALLELMAEVLRRLGNEELLEEVEELLEELSSSS
B10: il10ra_site1_sap_16_mot_2fa031a62b9321f410fa37cb4b35ac9e_0001_af2_000000160_0001_1_14_H_._HHH_b1_01244_0001_0000200012_0000001_0_0001_af2pred_0001 (protein)
chain: SSSSSDNEELVELIRRIAELLAEGDEEEAKELIEEVKKLAEELNNEIARVIAEFLERHQNSSSSS
B11: il10ra_site1_normal_mot_HHH_b2_00622_af2_000000153_0001_40_57_H_._HHH_b1_06107_0001_0000200021_0000001_0_af2pred_0001 (protein)
chain: SSSSSHVEEALRRLIRAARRLLELGNPELAELALRFAKRAAEHANDEEVLKEIEELLEELSSSSS
B12: il10ra_site1_normal_mot_HHH_b1_05317_af2_000000220_0001_43_57_H_._HHH_b2_06830_0001_0000200012_0000001_0 (protein)
chain: SSSSTEAFEIAKKAAELLKELLKEGDPEEAEKVLEEARELLEEANNEIAVRQLEFFFRREKSSSS
B13: il10ra_site1_sap_21_mot_HHH_b1_02062_000000185_0001_1_20_H_._HHH_b2_04055_0001_0000100005_0000001_0_0001 (protein)
chain: SSSSDDEELAVRFHVRLIEQALEQNNEEHVKSALRALRALAELINDPEAQELLEELEELLESSSS
B14: il10ra_site1_normal_mot_HHH_b1_01011_000000096_0001_1_19_H_._HHH_b2_00624_0001_0000200017_0000001_0 (protein)
chain: SSSSSEEEEYLRLSLRFARFLLEEGDPEAARRVLHAAEDIARKLGNEELLEEIEELLEKAGSSSS
B15: il10ra_site1_normal_mot_HHH_b2_00984_000000042_0001_1_20_H_._HHH_b1_02776_0001_0000400039_0000001_0 (protein)
chain: SSSSDLEEEIEKLLEELEELIKEGDHERILELALEILRLIYEAKNAELLQRLWELIKRFASSSSS
B16: il10ra_site1_sap_18_mot_HHH_b2_02927_000000097_0001_42_56_H_._HHH_b1_04520_af2_0001_0000600010_0000002_0_0001_af2pred_0001 (protein)
chain: SSSSEAEKIALEALVKAERLLQRGNPEEAEKVLEEAEEELRELNDPRAVLIIELALRLIRESSSS
B17: il10ra_site1_normal_mot_HHH_b1_01879_000000050_0001_1_18_H_._HHH_b1_00882_0001_0000100001_0000001_0_af2pred_0001 (protein)
chain: SSSSDREKLLQLIARAIALAQRLNDEETAKRLFELLIRFYRHGDPRYAEEAEELREELEGSSSSS
B18: il10ra_site1_normal_mot_HHH_b2_00984_000000042_0001_1_20_H_._96901828190b971c916e7b6b8058f7b9_0001_1_0001_0000100002_0000001_0 (protein)
chain: PEQEVARRLLQLAFREGDPKLLQALWKLIKRAFEGDPEAEELLEEVAELLKKDEEEAKRLLKELG
B19: il10ra_site1_normal_mot_HHH_b2_01999_000000006_0001_1_18_H_._HHH_b1_07352_af2_0001_0000100004_0000001_0 (protein)
chain: SSSSTEVQEIVAEAIRLAIRLSDEEIFQELYELFRKYIEEGDERYQEELEELLEELRERLSSSSS
B20: il10ra_site1_sap_10_mot_6d7a5e300d552f8fe4195b5ca7ab279b_0001_000000114_0001_17_31_H_._06d841987633609111226104c7934927_0001_1_af2_0001_0000400003_0000002_0_000 … (protein)
chain: SSSSSDEEELVEAAFRIAEQALEYGDEERFRALLIALELIAEEANDPEARRLVEELEELGSSSSS
B21: il10ra_site1_normal_mot_ems_3hM_3349_af2_000000045_0001_25_42_H_._26de121311cec1c6b0b9f4dad300ffe3_0001_1_0001_0000100004_0000001_0 (protein)
chain: SEEERIEEILREAGVPPELVRLVVLAFELQLRQGSPPELILRALKLQARARGDPRLEEALELIEK
B22: il10ra_site1_sap_12_mot_HHH_b2_02693_af2_000000213_0001_19_35_H_._HHH_b2_04018_af2_0001_0000100002_0000002_0_0001 (protein)
chain: SSSSSEEEERVLELLREVFRLALRGNPEEARKVLEEAKELAEEIGDERALKMIEDLERSISSSSS
B23: il10ra_site1_sap_7_mot_4271555111f650dfcc09ceace45bed71_0001_1_000000133_0001_37_51_H_._923fb7134a056606f9ad410cad792901_0001_af2_0002_0000100001_0000001_0_0001 (protein)
chain: SSSSEVDEVYRLLEEILELLAQGDTDRVRELLEEIEELIEKLGNWSMRFSLKVLERELELLESSS
B24: il10ra_site1_normal_mot_HHH_b2_07579_000000077_0001_1_19_H_._HHH_b2_08153_0001_0000100009_0000002_0_af2pred_0001 (protein)
chain: SSSSTELAEEVFKILRRVAELRAQGNPEEAEELVQEALEIAEKAGNLILRISAETLLRQISSSSS

What follows are binders tested against il10ra, Q13651 (assay: yeast display titration).

Apparent Kd, inactive:
B1 no binding seen
B2 no binding seen
B3 no binding seen
B4 no binding seen
B5 no binding seen
B6 no binding seen
B7 no binding seen
B8 no binding seen
B9 no binding seen
B10 no binding seen
B11 no binding seen
B12 no binding seen
B13 no binding seen
B14 no binding seen
B15 no binding seen
B16 no binding seen
B17 no binding seen
B18 no binding seen
B19 no binding seen
B20 no binding seen
B21 no binding seen
B22 no binding seen
B23 no binding seen
B24 no binding seen

Reprinted at random: two entries already listed
Apparent Kd, inactive:
B22 no binding seen
B5 no binding seen
